Experimental findings from patent US20260085073A1, “PYRAZOLYLCARBOXAMIDE COMPOUNDS AND THEIR USE IN THERAPY” (Hotspot Therapeutics, Inc., priority 2022, published 2026) are described below.

By UniProt entry, the sequences of proteins in these tests, tags left out.
UniProt Q9UDY8, whole entry: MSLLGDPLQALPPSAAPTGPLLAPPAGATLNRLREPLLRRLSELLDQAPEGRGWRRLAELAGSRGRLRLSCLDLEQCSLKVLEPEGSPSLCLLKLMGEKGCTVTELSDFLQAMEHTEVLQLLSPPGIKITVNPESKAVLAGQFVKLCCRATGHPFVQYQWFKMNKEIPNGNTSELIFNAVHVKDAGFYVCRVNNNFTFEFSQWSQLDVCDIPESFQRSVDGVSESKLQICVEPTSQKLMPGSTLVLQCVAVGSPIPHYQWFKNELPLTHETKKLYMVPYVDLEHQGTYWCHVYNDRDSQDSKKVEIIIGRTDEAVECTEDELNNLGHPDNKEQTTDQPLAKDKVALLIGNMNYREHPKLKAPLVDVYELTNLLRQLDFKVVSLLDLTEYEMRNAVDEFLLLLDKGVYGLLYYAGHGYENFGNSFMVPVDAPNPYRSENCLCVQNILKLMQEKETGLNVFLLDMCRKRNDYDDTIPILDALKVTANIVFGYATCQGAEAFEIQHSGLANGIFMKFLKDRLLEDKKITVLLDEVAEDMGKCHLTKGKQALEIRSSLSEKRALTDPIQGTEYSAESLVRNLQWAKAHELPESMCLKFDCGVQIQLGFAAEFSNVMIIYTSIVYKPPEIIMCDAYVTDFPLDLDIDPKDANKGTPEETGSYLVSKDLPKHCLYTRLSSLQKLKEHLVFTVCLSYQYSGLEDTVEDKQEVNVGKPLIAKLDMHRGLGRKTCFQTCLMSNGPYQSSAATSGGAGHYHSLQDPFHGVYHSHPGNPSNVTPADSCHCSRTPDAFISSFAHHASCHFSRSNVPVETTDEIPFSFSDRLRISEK

The match of structure and compound is tentative.

For this assay, the target named is MALT1 (Homo sapiens, UniProt Q9UDY8). Put plainly: MALT1 inhibition assay (MALT-1 Fluorogenic Peptide Cleavage Assay, Ac-LRSR-AMC substrate). The note with it: read-out: MALT1 IC50, Avi-tagged FL MALT-1, 30 min pre-incubation, 90 min reaction at room temperature, fluorescence intensity. Here is the method:
Example 71—MALT1 Inhibition Assay
Compounds were tested for ability to bind to MALT1.
Inhibition of MALT1 activity by the presence of small molecules was evaluated using MALT-1 Fluorogenic Peptide Cleavage Assay. The assay utilizes a quenched AMC-labelled peptide that contains the MALT-1 recognition sequence and cleavage site (LRSR). MALT-1 mediated cleavage of the peptide relieves the quenching and leads to an increase in fluorescence at excitation (342 nm) and emission (441 nm). […]
Compounds were plated to provide a 2% DMSO final concentration using a ProxiPlate-384 Plus F Black 384-shallow well microplate. The assay-ready plates were equilibrated to room temperature. […]
Fluorescence intensity was determined using a CLARIOstar microplate reader (BMG LABTECH) using the optimised AMC mode. Before taking readings, a 70% gain was applied on the neutral control well. […]

The term IC50 denotes the midpoint of a concentration-inhibition curve. Consider `Cn1nc(-c2ccncc2Cl)c(C(F)(F)F)c1C(=O)Nc1ccnc(C(F)(F)F)c1`, for which the IC50 was under 0.5 µM.
